Assay results published in publication PMC10052474, “Carbon Fixation in the Chemolithoautotrophic Bacterium Aquifex aeolicus Involves Two Low-Potential Ferredoxins as Partners of the PFOR and OGOR Enzymes” (Life, 2023).

B1: uncharacterized protein Aq_1163 of Aquifex aeolicus (protein, UniProt O67227 1-125)
chain: MWARVLKLICEELGDRELFLLEADKDLKWFGAPVKEVCEKVNFDARNSEIAQTVKASLQEVQGEGWIVYVDPFNNFADIYEANKPRYRNRWNQERPYDISETRFRVGFFPSREEAYDSSSRFQRE
B2: reverse gyrase 2 of Aquifex aeolicus (enzyme, UniProt O67226 1-1159)
chain: MALELIERGCPNCGGVISSDRLEKGLPCSKCLPKPTEEKVCDALEELKTLKYLKPFCDTDKSLERFINFFEKAVGAKPWSLQRVWAKRVFMNQSFAIVAPTGVGKTTFGLVMSLFLKGRVLAIFPTRLLAQQAGDRLSELAQKVGVNKKILIYQSKKNIREQFLNGDWDILLGTNMFLHKNFENLINFKFKLIFIDDIDSFLKRGKNVDYLFKLLGFSGEEIKLALKENKTQRDYDRLARIRKRKRDTVLIVSSATLKPRGKRAYLFRNLLGFDVQKAITTLRNIVDVAEPVKDLEEALEKSVELIKKLGKGGLVYLSVFYGKDKVQEVKEFYRKHGINAVSYLDYKPEELYQILEKGEFDVAVGISHITNPLVRGIDLPHIIRYAVFLDPPKHVFPTELTLSPPLLHGLLLTLLNLFEGDDRLKAIQYVMYLKRYLTLREEQLDNYPRIKERVEEIKNFLENYLKDENFLKKIKESEDISLVPKEGKLYIVVGDANSYIQASGRTSRFIAGGMTKGLSVVYYSDPKAFYSLKKRLALYYMTQEIEFKRLSEVDLNKLIKEIDEDRKRAREILQGKGVAQIKDLFKTTLVIVESPNKARTIAGFFGKPQMRLVEDSVAYEVPLGDRLLVITASLGHVLDLVTDKGFFGVLDDTYPYLPVYDTIKICRETHEQHTEYEYLKKRCKGKIEDKLEIIKGVREVSYEVDEVFIATDPDAEGEKIGYDLYLLSKPFNFNIKRAEFHEVTPKAFREAIQNPREVDLNLVKAQLVRRILDRWVGFTLSHILWDAFGKKWLSAGRVQTPVLGWVIKRYEESKEKKGEILLHVNDFPLKIEIEDLMFAKEIFKDLELADISLSNPQEEEKRPLPPYTTDTVLEDANEKLHLSAHKTMKILQELFEAGYITYHRTDSTRVSDAGKYLVAKPYITKMFGEEYFYPRSWGEGGAHECIRPTRPLEPKDLEFMITAGIAEFEDPENALKVYELIFKRFMASQMRPAKVITEEIILKLPYFEWKERVVTEVKEHGFDLMYPTFKVFPKKEKLEITHKEFREVPKVYPYTQGTLIQEMKRRGLGRPSTYAQIVQTLLERHYVVEEKGFLIPTDLGREVYEYLTKHFPEWTSEELTRKLEEAMDKIERGELDYMEVLKEVHRIKVLLKEEKAFKK

Molecular target: recombinant Fd7 (Fd7Strep), Aquifex aeolicus ferredoxin 7 with a C-terminal Strep-tag II (Aquifex aeolicus)
Test: pull-down; purified Fd7Strep (450 µg) incubated 1 h at room temperature, semi-anaerobic, with A. aeolicus soluble extract and avidin; 0.15 M NaCl, 0.1 M Tris-HCl pH 8; captured on a Strep-Tactin column and eluted; eluted proteins identified by mass spectrometry of bands of a denaturing gel and by in-gel PFOR and OGOR activity and mass spectrometry on a BN gel; control without Fd7Strep; only the target purified

binding	Binder
binds	B1
binds	B2

These are yes or no findings as the source states them, for the method shown. Binding seen in cells or lysates may run through a third protein. Binding calls can cover weak binding; strength is not graded here.
